# These are yes or no findings as the source states them, for the method shown. In cells and extracts the contact can be indirect. Where a sequence is shown, tags or fusion partners need not be part of it.
# Columns and labels:
# Experiment in all cases: co-IP; HEK293 cell lysates expressing V5-tagged SMS1, SMS2 or SMSr and 3×FLAG-tagged DGK isozymes; immunoprecipitation with anti-V5 antibody and Protein A/G PLUS-agarose; western blot with anti-FLAG and anti-V5
# [1] = target: T1, SMS1‐V5 (C-terminal V5-tagged human sphingomyelin synthase 1) (human) (UniProt Q86VZ5)
# T1 sequence: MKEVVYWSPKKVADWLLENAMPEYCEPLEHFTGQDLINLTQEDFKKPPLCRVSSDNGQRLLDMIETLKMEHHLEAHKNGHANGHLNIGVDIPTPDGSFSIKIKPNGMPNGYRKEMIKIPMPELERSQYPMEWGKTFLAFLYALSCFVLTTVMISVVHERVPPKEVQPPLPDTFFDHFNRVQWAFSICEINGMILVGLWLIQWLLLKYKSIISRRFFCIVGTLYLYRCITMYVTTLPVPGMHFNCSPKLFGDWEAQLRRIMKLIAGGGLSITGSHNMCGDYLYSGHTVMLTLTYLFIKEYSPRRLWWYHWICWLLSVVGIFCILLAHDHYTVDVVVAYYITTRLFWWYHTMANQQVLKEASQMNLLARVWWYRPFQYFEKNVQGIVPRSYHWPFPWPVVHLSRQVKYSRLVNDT
# [2] = target: T2, SMS2‐V5 (C-terminal V5-tagged human sphingomyelin synthase 2) (human) (UniProt Q8NHU3)
# T2 sequence: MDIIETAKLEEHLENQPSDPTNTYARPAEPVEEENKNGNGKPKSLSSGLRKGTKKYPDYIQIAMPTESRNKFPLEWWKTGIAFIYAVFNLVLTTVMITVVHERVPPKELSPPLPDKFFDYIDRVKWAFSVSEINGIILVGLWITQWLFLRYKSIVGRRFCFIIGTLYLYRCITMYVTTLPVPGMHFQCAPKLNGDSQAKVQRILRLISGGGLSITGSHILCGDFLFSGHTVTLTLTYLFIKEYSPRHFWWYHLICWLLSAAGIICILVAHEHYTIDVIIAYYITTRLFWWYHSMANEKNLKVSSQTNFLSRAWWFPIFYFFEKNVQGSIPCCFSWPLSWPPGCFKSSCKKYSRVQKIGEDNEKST
# [3] = target: T3, SMSr‐V5 (C-terminal V5-tagged human sphingomyelin synthase-related protein) (human) (UniProt Q96LT4)
# T3 sequence: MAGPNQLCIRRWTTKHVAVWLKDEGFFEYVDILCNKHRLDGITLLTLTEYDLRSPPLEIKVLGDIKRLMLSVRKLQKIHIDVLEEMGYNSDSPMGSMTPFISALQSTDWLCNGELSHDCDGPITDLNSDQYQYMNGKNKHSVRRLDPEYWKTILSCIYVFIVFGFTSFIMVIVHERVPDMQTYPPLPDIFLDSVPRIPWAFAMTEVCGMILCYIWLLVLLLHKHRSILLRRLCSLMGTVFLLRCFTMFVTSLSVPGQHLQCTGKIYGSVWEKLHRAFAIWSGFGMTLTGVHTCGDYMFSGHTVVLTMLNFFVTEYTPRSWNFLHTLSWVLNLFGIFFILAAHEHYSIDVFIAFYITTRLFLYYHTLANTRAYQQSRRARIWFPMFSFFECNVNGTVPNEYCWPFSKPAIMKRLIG
binding [1],binding [2],binding [3],Substance
no binding,no binding,no binding,3×FLAG‐DGKα (enzyme)
no binding,no binding,no binding,3×FLAG‐DGKγ (enzyme)
no binding,,no binding,3×FLAG‐DGKε (enzyme)
no binding,no binding,no binding,3×FLAG‐DGKη1 (enzyme)
no binding,no binding,no binding,3×FLAG‐DGKθ (enzyme)
no binding,no binding,no binding,3×FLAG‐DGKι (enzyme)

# Source: article PMC10315710, “Diacylglycerol kinase ζ interacts with sphingomyelin synthase 1 and sphingomyelin synthase‐related protein via different regions” (FEBS Open Bio, 2023)
